This note sets out measurements from the supplement of paper PMC12823440, “Inhibitors supercharge kinase turnover through native proteolytic circuits” (Nature, 2025).

By UniProt entry, the sequences of proteins in these tests, tags left out. Where a name states a change or a piece, a line headed by the entry shows the natural chain unless it says otherwise.
UniProt P11802: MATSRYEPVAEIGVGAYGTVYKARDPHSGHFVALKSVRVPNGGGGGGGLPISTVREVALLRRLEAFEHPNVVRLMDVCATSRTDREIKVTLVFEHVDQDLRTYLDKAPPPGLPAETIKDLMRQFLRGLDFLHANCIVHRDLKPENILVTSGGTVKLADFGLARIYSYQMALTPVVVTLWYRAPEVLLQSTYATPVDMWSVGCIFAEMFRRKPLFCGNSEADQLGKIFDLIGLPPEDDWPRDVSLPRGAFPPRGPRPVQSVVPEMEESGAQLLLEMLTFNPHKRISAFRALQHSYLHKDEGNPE
UniProt P50613: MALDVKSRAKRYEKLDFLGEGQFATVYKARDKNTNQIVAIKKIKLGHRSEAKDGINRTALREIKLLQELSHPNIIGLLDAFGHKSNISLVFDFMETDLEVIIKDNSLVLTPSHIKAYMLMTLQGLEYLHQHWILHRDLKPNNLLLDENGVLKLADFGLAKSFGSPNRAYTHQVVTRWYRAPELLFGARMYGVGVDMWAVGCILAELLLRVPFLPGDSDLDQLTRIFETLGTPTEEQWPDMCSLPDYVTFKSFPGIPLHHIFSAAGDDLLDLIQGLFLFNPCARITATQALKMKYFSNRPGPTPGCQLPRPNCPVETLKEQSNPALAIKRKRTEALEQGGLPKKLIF

Where a name gives a salt, the structure may show the parent alone. The list shows a part of the results. The calls rarely recur for the same compound in another form.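 Kinases were expressed as nanoluciferase fusions in K562 cells and luminescence was read every 4 h between 2 and 18 h as percent of control, DMSO set to 100% and a positive control to 0%. A time point counts as decreased when the signal drops significantly (2 sigma). The hit call is the authors' own, does not follow from the count of time points alone, and its rule is not shown.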

The first experiment has as its target CDK4 (UniProt P11802). Kind of experiment: number of time points (of 4; 2 h point missing) at which kinase-Nluc abundance scored as decreased, DMSO-normalised (count); higher = more persistent destabilization. The note with it: 10 µM; K562; 2-18 h.
As to `COc1ncc(F)cc1CNc1ccc(Cc2c[nH]c3ncc(C)cc23)c(F)n1` [PLX5622 (hemifumarate)], the “number of time points” value was 0. Regarding `C#Cc1cccc(Nc2ncnc3cc(OCCOC)c(OCCOC)cc23)c1` [Erlotinib], the “number of time points” value worked out at 0.

On to `Oc1cccc(-c2nc(N3CCOCC3)c3oc4ncccc4c3n2)c1`, for which the “number of time points” value was 0. On to `C#Cc1cccc(Nc2ncnc3cc(OCCOC)c(OCCO)cc23)c1` [Desmethyl Erlotinib (hydrochloride)], for which the “number of time points” value was 0. With `C[C@@H](N)[C@H]1CC[C@H](C(=O)Nc2ccncc2)CC1`, the “number of time points” value was 0. As for `C#Cc1cccc(Nc2ncnc3cc4c(cc23)OCCOCCOCCO4)c1` [Icotinib], the “number of time points” value was found to be 0.

With `C#Cc1cccc(Nc2ncnc3cc4c(cc23)OCCOCCOCCO4)c1` [Icotinib (Hydrochloride)], the “number of time points” value amounted to 0. On to `O=C(c1ccc(F)c(F)c1Nc1ccc(I)cc1F)N1CC(O)([C@@H]2CCCCN2)C1` [Cobimetinib], for which the “number of time points” value came out at 0. With `COc1cc2nccc(Nc3cc(OC)c(OC)c(OC)c3)c2cc1OC` [GAK inhibitor 49 (hydrochloride)], the “number of time points” value was 0. With `O=C(c1ccc(F)c(F)c1Nc1ccc(I)cc1F)N1CC(O)([C@@H]2CCCCN2)C1` [Cobimetinib (hemifumarate)], the “number of time points” value worked out at 0. For `C=CC(=O)Nc1cc(Nc2ncc(C(=O)OC(C)C)c(-c3cn(C)c4ccccc34)n2)c(OC)cc1N(C)CCN(C)C` [Mobocertinib (succinate)], the “number of time points” value is 0. `CNC(=O)c1ccccc1Nc1cc(Nc2ccc(N3CCOCC3)cc2OC)ncc1C(F)(F)F` [PND-1186 (hydrochloride)]: the “number of time points” value was found to be 0. Still for that read-out and setting: to `Cc1cccc(/C=N/Nc2cc(N3CCOCC3)nc(OCCc3ccccn3)n2)c1` [Apilimod (mesylate)] belongs 0; to `O=C(O)c1ccc2c(c1)nc(Nc1cccc(Cl)c1)c1ccncc12` [Silmitasertib (sodium salt)], 0.

On to `C[C@H](CCC(=O)NCCS(=O)(=O)O)[C@H]1CC[C@H]2[C@@H]3[C@@H](O)C[C@@H]4C[C@H](O)CC[C@]4(C)[C@H]3CC[C@]12C` [Tauroursodeoxycholate (dihydrate)], for which the “number of time points” value turned out to be 0. On to `COc1cc2c(cc1OC)-c1c(C)c3ccc(OC)c(OC)c3c[n+]1CC2` [Dehydrocorydaline (chloride)], for which the “number of time points” value came to 0. Regarding `Clc1ccc(C2(c3ccc(-c4cn[nH]c4)cc3)CCNCC2)cc1`, the “number of time points” value is 0.

For the molecule `CCCC(=O)Nc1ncnc2c1ncn2[C@@H]1O[C@@H]2COP(=O)(O)O[C@H]2[C@H]1OC(=O)CCC` [Bucladesine (calcium)], the “number of time points” value was 0. For `CCS(=O)(=O)N1CCN(c2ccc(Nc3ncc(C(N)=O)c(NC4CC4)n3)cc2)CC1` [Cerdulatinib], the “number of time points” value was determined as 0.

Regarding `CCS(=O)(=O)N1CC(CC#N)(n2cc(-c3ncnc4[nH]ccc34)cn2)C1` [Baricitinib (phosphate)], the “number of time points” value is 0. With `FC(F)(F)c1ccc(CNc2ccc(Cc3c[nH]c4ncc(Cl)cc34)cn2)cn1` [Pexidartinib (hydrochloride)], the “number of time points” value amounted to 0. With `O=C(Nc1cnn2ccc(N3CCC[C@@H]3c3cc(F)ccc3F)nc12)N1CC[C@H](O)C1` [Larotrectinib sulfate], the “number of time points” value worked out at 0. The same measure, in the same setting: to `C[C@@H](N)c1ccc(C(=O)Nc2ccnc3[nH]ccc23)cc1` belongs 0; to `C[S+]([O-])c1ccc(-c2nc(-c3ccc(F)cc3)c(-c3ccncc3)[nH]2)cc1` (stereo unspecified), 0; to `CS(=O)(=O)N1CCN(Cc2cc3nc(-c4cccc5[nH]ncc45)nc(N4CCOCC4)c3s2)CC1` [Pictilisib (dimethanesulfonate)], 0.

The target of the next experiment is CDK7 (UniProt P50613). Described as above. The note with it: 2.5 µM; K562; 2-18 h.
As to `C=CC(=O)Nc1cc(Nc2nccc(-c3cn(C)c4ccccc34)n2)c(OC)cc1N(C)CCN(C)C` [Osimertinib mesylate], the “number of time points” value stood at 1. In the case of `Cc1cccc(-c2[nH]c(CNc3ccccc3F)nc2-c2ccc3ncnn3c2)n1` [Vactosertib (Hydrochloride)], the “number of time points” value came out at 0. Take `CC(C)Oc1ccc(-c2nn([C@@H](C)c3oc4ccc(F)cc4c(=O)c3-c3cccc(F)c3)c3ncnc(N)c23)cc1F` [Umbralisib (hydrochloride)]: the “number of time points” value was 0. Turning to `COc1ccc(S(=O)(=O)Nc2ccccc2CN(C)C/C=C/c2ccc(Cl)cc2)cc1` [KN-92 (phosphate)], the “number of time points” value was found to be 0.

For `CN(C)C(=O)c1cc2cnc(Nc3ccc(N4CCNCC4)cn3)nc2n1C1CCCC1` [Ribociclib succinate hydrate], the “number of time points” value worked out at 0.

On to `C=CC(=O)Nc1cc2c(Nc3ccc(F)c(Cl)c3)ncnc2cc1C#CC(C)(C)N1CCN(C)CC1`, for which the “number of time points” value worked out at 0. As to `Cc1cccc(/C=N/Nc2cc(N3CCOCC3)nc(OCCc3ccccn3)n2)c1` [Apilimod], the “number of time points” value was 0. On the same count and under the same terms, to `COc1cc2c(Oc3ccc4[nH]c(C)cc4c3F)ncnc2cc1OCCCN1CCCC1` [Cediranib] belongs 0; to `Cc1cc(Nc2ncc(Cl)c(Nc3ccccc3S(=O)(=O)C(C)C)n2)c(OC(C)C)cc1C1CCNCC1` [Ceritinib dihydrochloride], 0.

Turning to `Nc1ncnc2c1c(-c1ccc(Oc3ccccc3)cc1)nn2[C@@H]1CCCNC1`, the “number of time points” value is 0.

In the case of `CNC(=O)c1cc(Oc2ccc(NC(=O)Nc3ccc(Cl)c(C(F)(F)F)c3)c(F)c2)ccn1` [Regorafenib], the “number of time points” value is 3.
